This experiment concerns the target T1, BRI2 (integral membrane protein 2B) (rat (endogenous in brain)) (UniProt Q5XIE8).
T1 sequence: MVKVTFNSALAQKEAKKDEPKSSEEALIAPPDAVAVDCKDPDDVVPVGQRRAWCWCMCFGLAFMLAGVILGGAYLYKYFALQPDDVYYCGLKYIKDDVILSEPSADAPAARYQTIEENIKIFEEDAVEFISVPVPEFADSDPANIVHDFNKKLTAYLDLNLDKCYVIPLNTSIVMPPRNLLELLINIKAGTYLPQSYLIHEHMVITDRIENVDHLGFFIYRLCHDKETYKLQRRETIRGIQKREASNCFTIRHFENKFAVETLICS
Briefly: affinity purification with mass spectrometry; mouse anti-BRI2 antibody (N-terminal region) on Dynabeads Protein G; pre-cleared rat cerebral cortex, hippocampus and cerebellum lysates (50 mM Tris-HCl pH 8.0, 120 mM NaCl, 4% CHAPS), overnight at 4 °C; co-precipitated proteins identified by nano-HPLC-MS/MS; hits absent from the two mock IPs or with a PSM ratio >= 2.0.

No constants are given. Whether binding was seen depends on the method and setting. In cells and extracts the contact can be indirect. These calls come from enrichment with a bait or labelling near it, and not all partners need be listed. Sequences can lack the tags named with a protein.

B1: Synaptotagmin-12 (protein, UniProt P97610 1-421)
chain: MAVDVTEYHLSVIKSPPGWEVGVYAAGALALLGIAAVSLWKLWTSGSFPSPSPFPNYDYRYLQQKYGEAYVEAKLKRVPPWNAQRTTTRGPPSRKGSLSIEDTFESISELGPLELMGRELDLAPYGTLRKSQSADSLNSISSVSNTFGQDFTLGQVEVSMDYDGASHTLHVAVLQGKDLLEREEATFESCFMRVSLLPDEQIVGISRIQRNAYSIFFDEKFSVPLDPTALEEKSLRFSVFGIDEDERNVSTGVVELKLSVLDLPLQPFSGWLYLQDQNKAADAVGEILLSLSYLPTAERLTVVVVKAKNLIWTNDKTTADPFVKVYLLQDGRKMSKKKTAVKRDDPNPVFNEAMIFSVPAIVLQDLSLRVTVAESSSDGRGDNVGHVIIGPGASGMGTTHWNQMLATLRRPVSMWHPVRRN
On to B1, for which the binding entry is reported as “binds”.

B2: 2′,3′-cyclic-nucleotide 3′-phosphodiesterase (protein, UniProt P13233 1-420)
chain: MSTSFARKSHTFLPKIFFRKMSSSGAKDKPELQFPFLQDEDTVATLHECKTLFILRGLPGSGKSTLARLIVEKYHNGTKMVSADAYKIIPGSRADFSEEYKRLDEDLAGYCRRDIRVLVLDDTNHERERLDQLFEMADQYQYQVVLVEPKTAWRLDCAQLKEKNQWQLSLDDLKKLKPGLEKDFLPLYFGWFLTKKSSETLRKAGQVFLEELGNHKAFKKELRHFISGDEPKEKLDLVSYFGKRPPGVLHCTTKFCDYGKATGAEEYAQQDVVRRSYGKAFKLSISALFVTPKTAGAQVVLNEQELQLWPSDLDKPSSSESLPPGSRAHVTLGCAADVQPVQTGLDLLEILQQVKGGSQGEEVGELPRGKLYSLGKGRWMLSLAKKMEVKAIFTGYYGKGKPVPVHGSRKGGAMQICTII
With B2, the binding entry is “binds”.

B3: Vesicular glutamate transporter 1 (protein, UniProt Q62634 1-560)
chain: MEFRQEEFRKLAGRALGRLHRLLEKRQEGAETLELSADGRPVTTHTRDPPVVDCTCFGLPRRYIIAIMSGLGFCISFGIRCNLGVAIVSMVNNSTTHRGGHVVVQKAQFNWDPETVGLIHGSFFWGYIVTQIPGGFICQKFAANRVFGFAIVATSTLNMLIPSAARVHYGCVIFVRILQGLVEGVTYPACHGIWSKWAPPLERSRLATTAFCGSYAGAVVAMPLAGVLVQYSGWSSVFYVYGSFGIFWYLFWLLVSYESPALHPSISEEERKYIEDAIGESAKLMNPVTKFNTPWRRFFTSMPVYAIIVANFCRSWTFYLLLISQPAYFEEVFGFEISKVGLVSALPHLVMTIIVPIGGQIADFLRSRHIMSTTNVRKLMNCGGFGMEATLLLVVGYSHSKGVAISFLVLAVGFSGFAISGFNVNHLDIAPRYASILMGISNGVGTLSGMVCPIIVGAMTKHKTREEWQYVFLIASLVHYGGVIFYGVFASGEKQPWAEPEEMSEEKCGFVGHDQLAGSDESEMEDEVEPPGAPPAPPPSYGATHSTVQPPRPPPPVRDY
Regarding B3, the binding entry is “binds”.

B4: Vesicular glutamate transporter 2 (protein, UniProt Q9JI12 1-582)
chain: MESVKQRILAPGKEGIKNFAGKSLGQIYRVLEKKQDNRETIELTEDGKPLEVPEKKAPLCDCTCFGLPRRYIIAIMSGLGFCISFGIRCNLGVAIVDMVNNSTIHRGGKVIKEKAKFNWDPETVGMIHGSFFWGYIITQIPGGYIASRLAANRVFGAAILLTSTLNMLIPSAARVHYGCVIFVRILQGLVEGVTYPACHGIWSKWAPPLERSRLATTSFCGSYAGAVIAMPLAGILVQYTGWSSVFYVYGSFGMVWYMFWLLVSYESPAKHPTITDEERRYIEESIGESANLLGAMEKFKTPWRKFFTSMPVYAIIVANFCRSWTFYLLLISQPAYFEEVFGFEISKVGMLSAVPHLVMTIIVPIGGQIADFLRSKQILSTTTVRKIMNCGGFGMEATLLLVVGYSHTRGVAISFLVLAVGFSGFAISGFNVNHLDIAPRYASILMGISNGVGTLSGMVCPIIVGAMTKNKSREEWQYVFLIAALVHYGGVIFYALFASGEKQPWADPEETSEEKCGFIHEDELDEETGDITQNYINYGTTKSYGATSQENGGWPNGWEKKEEFVQESAQDAYSYKDRDDYS
For B4, the binding entry is given as “binds”.

B5: Tropomodulin-2 (protein, UniProt P70566 1-351)
chain: MALPFQKGLEKYKNIDEDELLGKLSEEELKQLENVLDDLDPESATLPAGFRQKDQTQKAATGPFDREHLLMYLEKEALEQKDREDFVPFTGEKKGRVFIPKEKPVETRKEEKVTLDPELEEALASASDTELYDLAAVLGVHNLLNNPKFDEETTNGQGRKGPVRNVVKGEKAKPVFEEPPNPTNVEASLQQMKANDPSLQEVNLNNIKNIPIPTLKEFAKALETNTHVRKFSLAATRSNDPVALAFAEMLKVNKTLKSLNVESNFITGAGILALVEALRENDTLTEIKIDNQRQQLGTAVEMEIAQMLEENSRILKFGYQFTKQGPRTRVAAAITKNNDLVRKKRVEGDRR
Turning to B5, the binding entry is recorded as “binds”.

B6: Vesicular inhibitory amino acid transporter (protein, UniProt O35458 1-525)
chain: MATLLRSKLTNVATSVSNKSQAKVSGMFARMGFQAATDEEAVGFAHCDDLDFEHRQGLQMDILKSEGEPCGDEGAEPPVEGDIHYQRGGAPLPPSGSKDQAVGAGGEFGGHDKPKITAWEAGWNVTNAIQGMFVLGLPYAILHGGYLGLFLIIFAAVVCCYTGKILIACLYEENEDGEVVRVRDSYVAIANACCAPRFPTLGGRVVNVAQIIELVMTCILYVVVSGNLMYNSFPGLPVSQKSWSIIATAVLLPCAFLKNLKAVSKFSLLCTLAHFVINILVIAYCLSRARDWAWEKVKFYIDVKKFPISIGIIVFSYTSQIFLPSLEGNMQQPSEFHCMMNWTHIAACVLKGLFALVAYLTWADETKEVITDNLPGSIRAVVNIFLVAKALLSYPLPFFAAVEVLEKSLFQEGSRAFFPACYGGDGRLKSWGLTLRCALVVFTLLMAIYVPHFALLMGLTGSLTGAGLCFLLPSLFHLRLLWRKLLWHQVFFDVAIFVIGGICSVSGFVHSLEGLIEAYRTNAED
On to B6, for which the binding entry is “binds”.

B7: Tenascin-R (protein, UniProt Q05546 32-1356)
chain: RLEVTTERVQRQTVEEEGGASSYNTSSKEQPMVFNHVYNINVPLESLCSSGLEASAEQDVSAEDDTLAEYTGQTSDHESQVTFTHKINLPKKACPCASSAQVLQELLSRIEMLEREVSVLRDQCNTNCCQESAATGQLDYVPHCSGHGNFSFESCGCICNEGWFGKNCSEPYCPLGCSSRGVCVDGQCICDSEYSGDDCSELRCPTDCSSRGLCVDGECVCEEPYTGEDCRELRCPGDCSGKGQCANGTCLCQEGYAGEDCSQRRCLNACSGRGHCQEGLCICEEGYQGPDCSAVTPPEDLRVAGISDRSIELEWDGPMAVTEYVISYQPSLGGLQLQQRVPGDWSGVTITELEPGLTYNISVYAVISNILSLPITAKVATHLSTPQGLQFKTITETTVEVQWEPFSFSFDGWEISFTPKNNEGGVIAQLPSDVTSFNQTGLKPGEEYIVNVVALKEQARGPPTSASVSTVIDGPTQILVRDVSDTVAFVEWTPPRAKVDFILLKYGLVGGEGGKTTFRLQPPLSQYSVQALRPGSRYEVSISAVRGTNESDASSTQFTTEIDAPKNLRVGSRTATSLDLEWDNSEAEAQEYKVVYSTLAGEQYHEVLVPKGIGPTTKTTLTDLVPGTEYGVGISAVMNSKQSIPATMNARTELDSPRDLMVTASSETSISLIWTKASGPIDHYRITFTPSSGISSEVTVPRDRTSYTLTDLEPGAEYIISITAERGRQQSLESTVDAFTGFRPISHLHFSHVTSSSVNITWSDPSPPADRLILNYSPRDEEEEMMEVLLDATKRHAVLMGLQPATEYIVNLVAVHGTVTSEPIVGSITTGIDPPKNITISNVTKDSLTVSWSPPVAPFDYYEYPIDHPSGRLDSSVVPNTVTEFTITRLYPASQYEISLNSVRGREESERICTLVHTAMDSPMDLIATNITPTEALLQWKAPMGEVENYVIVLTHFAMAGETILVDGVSEEFQLVDLLPRTHYTVTMYATSGPLVSGTIATNFSTLLDPPANLTASEVTRQSALISWQPPRAAIENYVLTYKSTDGSRKELIVDAEDTWIRLEGLSENTDYTVLLQAAQEATRSSLTSTIFTTGGRVFSHPQDCAQHLMNGDTLSGVYTIFLNGELSHKLQVYCDMTTDGGGWIVFQRRQNGQTDFFRKWADYRVGFGNLEDEFWLGLDNYHRITAQGRYELRVDMRDGQEAVFAYYDKFAVEDSRSLYKLRIGGYNGTAGDSLSYHQGRPFSTEDRDNDVAVTNCAMSYKGAWWYKNCHRTNLNGKYGESRHSQGINWYHWKGHEFSIPFVEMKMRPYIHRLTAGRKRRALKF
Take B7: the binding entry is listed as “binds”.

(Values after publication PMC5824958.)
